Assay [1] has as its target FLAG-human PGRN (progranulin) (human) (UniProt P28799). The assay can be described thus: co-IP; HEK293T cells co-transfected; anti-PGRN immunoprecipitation from lysate; 150 mM NaCl, 50 mM Tris pH 7.5, 1% Triton X-100, 0.1% deoxycholic acid, 4°C.
For assay [2] the target is unchanged. The assay can be described thus: co-IP; HEK293T cells co-transfected; anti-PGRN immunoprecipitation from lysate; 150 mM NaCl, 50 mM sodium acetate pH 5.3, 1% Triton X-100, 0.1% deoxycholic acid, 4°C.
Assay [3] concerns the target T1, FLAG-mPGRN (mouse progranulin) (mouse) (UniProt P28798).
T1 sequence: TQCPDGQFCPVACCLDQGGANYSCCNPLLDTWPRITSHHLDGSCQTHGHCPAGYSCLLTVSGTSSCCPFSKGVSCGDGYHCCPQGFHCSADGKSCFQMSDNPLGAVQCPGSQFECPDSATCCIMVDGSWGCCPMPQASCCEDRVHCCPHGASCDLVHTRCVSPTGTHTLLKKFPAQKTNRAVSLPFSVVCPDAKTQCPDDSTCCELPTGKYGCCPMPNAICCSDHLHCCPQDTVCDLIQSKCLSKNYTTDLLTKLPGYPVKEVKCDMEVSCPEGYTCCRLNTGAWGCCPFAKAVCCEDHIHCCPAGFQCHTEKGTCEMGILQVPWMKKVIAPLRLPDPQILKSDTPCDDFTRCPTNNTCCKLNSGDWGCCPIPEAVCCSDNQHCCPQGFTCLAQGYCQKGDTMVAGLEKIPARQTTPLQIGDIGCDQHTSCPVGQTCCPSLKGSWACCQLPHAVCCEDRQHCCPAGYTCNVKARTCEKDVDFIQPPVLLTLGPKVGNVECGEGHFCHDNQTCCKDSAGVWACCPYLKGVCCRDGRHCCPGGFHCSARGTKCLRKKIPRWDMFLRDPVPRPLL
The assay can be described thus: co-IP; HEK293T cells transfected with mGBA-FLAG-myc and FLAG-mPGRN; anti-myc (A) or anti-PGRN (B) immunoprecipitation, Western blot.

By UniProt entry, the sequences of proteins in these tests, tags left out. Residues count along the entry.
UniProt P28799, residues 18-593: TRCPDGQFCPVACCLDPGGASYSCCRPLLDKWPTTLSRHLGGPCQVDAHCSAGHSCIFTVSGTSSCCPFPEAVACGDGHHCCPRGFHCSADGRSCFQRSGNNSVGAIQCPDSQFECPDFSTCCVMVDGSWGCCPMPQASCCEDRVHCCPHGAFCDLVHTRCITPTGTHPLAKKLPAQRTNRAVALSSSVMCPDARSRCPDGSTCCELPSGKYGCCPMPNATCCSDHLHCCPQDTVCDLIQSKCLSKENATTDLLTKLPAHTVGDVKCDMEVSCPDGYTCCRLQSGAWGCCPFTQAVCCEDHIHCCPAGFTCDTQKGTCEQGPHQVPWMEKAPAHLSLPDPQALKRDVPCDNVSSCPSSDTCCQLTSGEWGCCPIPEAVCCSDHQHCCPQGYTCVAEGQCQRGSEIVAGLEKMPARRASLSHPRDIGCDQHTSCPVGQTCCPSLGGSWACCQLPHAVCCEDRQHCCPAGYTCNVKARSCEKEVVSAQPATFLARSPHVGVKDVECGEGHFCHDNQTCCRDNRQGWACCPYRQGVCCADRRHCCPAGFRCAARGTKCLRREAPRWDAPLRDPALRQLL

The values that follow come from PMC6619604.

No constants are given. Whether binding was seen depends on the method and setting. Binding seen in cells or lysates may run through a third protein. Some results given as binding are weak or reduced against the parent protein; the word gives no strength. Sequences can lack the tags named with a protein.

B1: human GBA with a C-terminal myc tag (glucocerebrosidase, GCase) (enzyme, UniProt P04062 40-536)
chain: ARPCIPKSFGYSSVVCVCNATYCDSFDPPTFPALGTFSRYESTRSGRRMELSMGPIQANHTGTGLLLTLQPEQKFQKVKGFGGAMTDAAALNILALSPPAQNLLLKSYFSEEGIGYNIIRVPMASCDFSIRTYTYADTPDDFQLHNFSLPEEDTKLKIPLIHRALQLAQRPVSLLASPWTSPTWLKTNGAVNGKGSLKGQPGDIYHQTWARYFVKFLDAYAEHKLQFWAVTAENEPSAGLLSGYPFQCLGFTPEHQRDFIARDLGPTLANSTHHNVRLLMLDDQRLLLPHWAKVVLTDPEAAKYVHGIAVHWYLDFLAPAKATLGETHRLFPNTMLFASEACVGSKFWEQSVRLGSWDRGMQYSHSIITNLLYHVVGWTDWNLALNPEGGPNWVRNFVDSPIIVDITKDTFYKQPMFYHLGHFSKFIPEGSQRVGLVASQKNDLDAVALMHPDGSAVVVVLNRSSKDVPLTIKDPAVGFLETISPGYSIHTYLWRRQ
B1: the binding result in assay [1] and in assay [2] was “binds” in each case.

B2: mGBA-FLAG-myc (mouse GBA with C-terminal FLAG myc tag) (enzyme, UniProt P17439 20-515)
chain: AQPCIPKSFGYSSVVCVCNASYCDSLDPVTLPALGTFSRYESTRRGRRMELSVGAIQANRTGTGLLLTLQPEKKFQKVKGFGGAMTDATALNILALSPPTQKLLLRSYFSTNGIEYNIIRVPMASCDFSIRVYTYADTPNDFQLSNFSLPEEDTKLKIPLIHQALKMSSRPISLFASPWTSPTWLKTNGRVNGKGSLKGQPGDIFHQTWANYFVKFLDAYAKYGLRFWAVTAENEPTAGLFTGYPFQCLGFTPEHQRDFISRDLGPALANSSHDVKLLMLDDQRLLLPRWAEVVLSDPEAAKYVHGIAVHWYMDFLAPAKATLGETHRLFPNTMLFASEACVGSKFWEQSVRLGSWDRGMQYSHSIITNLLYHVTGWTDWNLALNPEGGPNWVRNFVDSPIIVDIPKDAFYKQPMFYHLGHFSKFIPEGSQRVALVASESTDLETVALLRPDGSAVVVVLNRSSEDVPLTISDPDLGFLETVSPGYSIHTYLWRRQ
Turning to B2, the binding entry in assay [3] is listed as “binds”.
